Reference: US9415107B2, “Compositions and methods for the treatment of addiction and other neuropsychiatric disorders” (priority 2005, dated 2016)

Experiment: Pharmacokinetic interaction between cocaine, metyrapone and oxazepam (plasma concentrations by GCMS)
Conditions: ip co-administration

In the case of `O=C1Nc2ccc(Cl)cc2C(c2ccccc2)=NC1O` (stereo not shown) [oxazepam], the “effect on plasma concentrations of each other (metyrapone, oxazepam)” value is reported as “did not influence plasma concentrations of each other”.
